Test results published in publication PMC10290833.
Results are given in words; binding and its absence hold for the method and conditions named. Binding seen in cells or lysates may run through a third protein. Some binding calls cover weakened binding; strength is not graded here.

The chains behind the UniProt entries cited, without tags or fusion partners. Residues count along the entry.
UniProt P36941, residues 31-435: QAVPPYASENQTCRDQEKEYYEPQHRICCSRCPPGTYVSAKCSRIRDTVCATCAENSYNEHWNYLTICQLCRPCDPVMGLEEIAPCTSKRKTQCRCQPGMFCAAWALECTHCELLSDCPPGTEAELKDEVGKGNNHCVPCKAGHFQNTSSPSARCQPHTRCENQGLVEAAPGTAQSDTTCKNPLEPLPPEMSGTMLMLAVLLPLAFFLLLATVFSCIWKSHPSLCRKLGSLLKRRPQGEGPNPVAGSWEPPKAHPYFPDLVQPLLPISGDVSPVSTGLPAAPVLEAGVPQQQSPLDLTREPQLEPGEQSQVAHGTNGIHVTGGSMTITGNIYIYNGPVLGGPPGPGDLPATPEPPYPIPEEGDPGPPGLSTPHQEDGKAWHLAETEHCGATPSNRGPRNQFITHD
UniProt O00463: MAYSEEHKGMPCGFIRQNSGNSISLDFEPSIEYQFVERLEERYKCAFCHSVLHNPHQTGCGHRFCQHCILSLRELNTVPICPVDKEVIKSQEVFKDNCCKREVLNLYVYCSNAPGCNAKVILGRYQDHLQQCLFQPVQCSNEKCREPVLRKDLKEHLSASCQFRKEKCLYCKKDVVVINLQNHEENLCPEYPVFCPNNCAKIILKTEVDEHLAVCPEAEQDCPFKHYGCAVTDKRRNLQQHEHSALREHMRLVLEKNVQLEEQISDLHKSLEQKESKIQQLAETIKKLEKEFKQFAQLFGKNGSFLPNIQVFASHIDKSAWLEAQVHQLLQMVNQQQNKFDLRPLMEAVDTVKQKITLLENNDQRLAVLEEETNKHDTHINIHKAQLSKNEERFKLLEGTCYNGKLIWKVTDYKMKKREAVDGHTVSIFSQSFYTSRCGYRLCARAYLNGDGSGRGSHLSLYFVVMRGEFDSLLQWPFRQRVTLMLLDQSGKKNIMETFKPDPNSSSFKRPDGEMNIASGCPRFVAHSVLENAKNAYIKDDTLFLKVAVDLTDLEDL

Biological target: lymphotoxin beta receptor (human (endogenous in HEK293T)) (UniProt P36941)
Assay: co-IP; HEK293T lysate (Pierce IP Lysis Buffer) incubated with anti-TRAF5, anti-LTBR or anti-IgG (negative control) and Dynabeads Protein G at 25 °C overnight; precipitate analysed by western blot

Substance: TNF receptor-associated factor 5 (from UniProt O00463 1-557)
- binding: binds
